No constants are given. Whether binding was seen depends on the method and setting. In cells and extracts the contact can be indirect. Some entries that bind do so weakly or less than the wild type.
B1: M. tuberculosis PepD, wild type (expressed in M. smegmatis ΔpepD) (enzyme, UniProt O53896 1-464)
chain: MAKLARVVGLVQEEQPSDMTNHPRYSPPPQQPGTPGYAQGQQQTYSQQFDWRYPPSPPPQPTQYRQPYEALGGTRPGLIPGVIPTMTPPPGMVRQRPRAGMLAIGAVTIAVVSAGIGGAAASLVGFNRAPAGPSGGPVAASAAPSIPAANMPPGSVEQVAAKVVPSVVMLETDLGRQSEEGSGIILSAEGLILTNNHVIAAAAKPPLGSPPPKTTVTFSDGRTAPFTVVGADPTSDIAVVRVQGVSGLTPISLGSSSDLRVGQPVLAIGSPLGLEGTVTTGIVSALNRPVSTTGEAGNQNTVLDAIQTDAAINPGNSGGALVNMNAQLVGVNSAIATLGADSADAQSGSIGLGFAIPVDQAKRIADELISTGKASHASLGVQVTNDKDTLGAKIVEVVAGGAAANAGVPKGVVVTKVDDRPINSADALVAAVRSKAPGATVALTFQDPSGGSRTVQVTLGKAEQ

Amino acid sequences for entries named in this document (tags omitted). A change or cut given only in a name is not applied to a line headed by its entry.
UniProt P9WHP5, whole entry, stated change not applied: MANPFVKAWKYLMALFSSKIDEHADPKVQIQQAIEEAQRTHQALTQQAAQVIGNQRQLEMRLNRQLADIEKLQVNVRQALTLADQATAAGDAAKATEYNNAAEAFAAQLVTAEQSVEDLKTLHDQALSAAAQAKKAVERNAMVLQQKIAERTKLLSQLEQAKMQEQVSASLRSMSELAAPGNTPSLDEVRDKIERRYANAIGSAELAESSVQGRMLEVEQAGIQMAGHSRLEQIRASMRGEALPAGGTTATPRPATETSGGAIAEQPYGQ

The molecules below were run against 3xFLAG-Rv2744c-6xHis (expressed in M. smegmatis ΔpepD from pTZ1175) (Mycobacterium tuberculosis) (UniProt P9WHP5) (assay: co-IP).
In the case of “M. tuberculosis PepDS317A (untagged, expressed in M. smegmatis ΔpepD) (from UniProt O53896 1-464) (enzyme)”, the binding is reported as “binds”. For “MSMEG_2695 (35-kDa antigen of M. smegmatis) (from UniProt A0QVU2 1-279)”, the binding was “binds”. With B1 the binding was “binds”.

Source: publication PMC3062566
